Measured values taken from patent publication US11279678B2 (SHANGHAI ECUST BIOMEDICINE CO., LTD., priority 2017, dated 2022).
Some entries share one result that the patent states for a list of compounds. For at least one compound, name, drawing or mass did not settle the structure.

Key:
[1] = test system: gastric cancer MGC-803 transplanted tumor; test: Antitumor rate of oral administration in mice with MGC-803 transplanted tumor; assay type: in vivo; details: 50 mg/kg intragastric, d0-d12 every 2 days, 7 times; tumor weight; listed as ij
Description: Antitumor rate of oral administration of the compound towards MGC-803 mice with transplanted tumor
After 1 week of adaptation, the mice were inoculated with gastric cancer MGC-803 tumor tissue subcutaneously. After the tumor grew for 100-300 mm^3, the animals were randomly grouped. For the drug group, each group of each compound had 6 mice, and 12 mice were in the control group. The intragastric administration was employed and the dosage of Ii, Ij, Ik and Il was 25 and 50 mg/kg. The positive control was CA4, the administration time was d0, d2, d4, d6, d8, d10, d12 days, 7 times in total. The tumor size was measured 3 times per week, together with mice weight. The mice were executed 14 days after inoculation and the tumor mass was taken and measured for its weight. The tumor inhibition rate was calculated as tumor weight inhibition rate, and the formula is tumor weight inhibition rate %=(1-treatment group average tumor weight/control group average tumor weight)×100%.

[2] = single intragastric administration, mice; listed as ij

## COc1ccc(CCc2cc(OC)c(OC)c(OC)c2)cc1OC(=O)Cn1cc(F)c(=O)[nH]c1=O [Compound Ij, 2-methoxy-5-(3,4,5-trimethoxyphenethyl)-phenyl-2-(5-fluoro-2,4-dioxo-3,4-dihydropyrimidin-1(2H)-yl)acetate]
[1]
  Tumor inhibition rate (%): over 80%
[2]
  LD50 (mg/kg): above 1000 mg/kg
